# Measurements published in patent US4057635A, “Carbamates of ergolines and therapeutic compositions therewith” (Simes Societa Italiana Medicinali e Sintetici S.p.A., priority 1973, dated 1977).
# For at least one compound, name, drawing or mass did not settle the structure. Some compounds share one wording; it may come from a single statement.
# Tested on: isolated smooth muscles of the bowel and the gall bladder
# Assay: spasmolytic action on isolated smooth muscles of the bowel and the gall bladder
# Settings: guinea pigs
row,Structure (SMILES),spasmolytic action
1,"CN1C[C@H](COC(=O)N2CCCCCCC2)C[C@@H]2c3cccc4[nH]cc(c34)C[C@H]21 [IXL, D-6-methyl-8β-(perhydroazocinylcarbonyloxymethyl)-ergoline]",particularly conspicuous
2,"CN1C[C@H](COC(=O)N2CCCCCCCC2)C[C@@H]2c3cccc4[nH]cc(c34)C[C@H]21 [XXXIII, D-6-methyl-8β-(perhydroazoninylcarbonyloxymethyl)-ergoline]",particularly conspicuous
3,"CN1C[C@H](COC(=O)N2CCCCCC2)C[C@@H]2c3cccc4[nH]cc(c34)C[C@H]21 [compound XXXVIII, D-6-methyl-8β-(perhydroazepinylcarbonyloxymethyl)-ergoline]",particularly conspicuous
